Results as given in article PMC4120696.
No constants are given. Whether binding was seen depends on the method and setting. In cells and extracts the contact can be indirect.

Protein sequences, listed by entry. Tags and fused reporters are not part of them.
UniProt O75367: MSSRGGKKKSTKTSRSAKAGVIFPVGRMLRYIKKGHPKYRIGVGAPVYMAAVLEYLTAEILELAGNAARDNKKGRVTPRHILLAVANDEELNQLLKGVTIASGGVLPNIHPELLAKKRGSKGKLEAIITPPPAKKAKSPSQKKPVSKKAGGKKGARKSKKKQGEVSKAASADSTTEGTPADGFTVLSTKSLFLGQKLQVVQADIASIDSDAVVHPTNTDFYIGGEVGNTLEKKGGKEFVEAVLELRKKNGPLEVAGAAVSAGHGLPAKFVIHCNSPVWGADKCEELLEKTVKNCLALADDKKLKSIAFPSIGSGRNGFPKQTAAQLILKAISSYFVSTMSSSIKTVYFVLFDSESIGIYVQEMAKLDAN
UniProt P04406: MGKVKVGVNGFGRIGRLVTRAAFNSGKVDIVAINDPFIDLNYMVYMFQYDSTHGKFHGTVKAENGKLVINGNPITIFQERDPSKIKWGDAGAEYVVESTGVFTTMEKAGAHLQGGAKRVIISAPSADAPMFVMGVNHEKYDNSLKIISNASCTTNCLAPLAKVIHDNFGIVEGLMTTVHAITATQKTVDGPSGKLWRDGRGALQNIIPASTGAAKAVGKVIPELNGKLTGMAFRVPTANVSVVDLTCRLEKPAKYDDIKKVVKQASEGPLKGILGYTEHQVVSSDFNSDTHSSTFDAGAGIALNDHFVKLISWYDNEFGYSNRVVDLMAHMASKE

Target: mH2A1 (human (endogenous in GM00254, GM00468 and GM6111 fibroblasts)) (UniProt O75367)
Assay: co-IP; chromatin immunoprecipitation with anti-mH2A1 antibody (ab37264) and protein G magnetic beads from paraformaldehyde cross-linked, sonicated lysates of and triple-X human fibroblasts; washes with RIPA/SDS and with 500 mM NaCl RIPA at 4°C; cross-links reversed; protein content read by western blot

binding: no binding
Substance: GAPDH (glyceraldehyde-3-phosphate dehydrogenase) (from UniProt P04406 1-335)
